# Out of some 400,000 compounds screened, about 5,500 (1.4%) were called active. The inconclusive results got no clear call from the source; some entries with a clear call stand among them for comparison. Calls follow the shape of the dose curve; as a rule, active = well fitted cell-killing curve with a large enough effect; inconclusive = small, poorly fitted or top-dose-only effect, or effect the other way; inactive = flat fitted curve, though single readings scatter. Potencies beside an inconclusive call are fits to weak or partial responses and may not hold up.
# Assay: qHTS assay for MDR1-selective chemotherapeutics: Primary screen using the parental adenocarcinoma cell KB-3-1; also: nearly all actives have a fitted effect of over 60% in size
# Details: KB-3-1 viability, CellTiter-Glo ATP luminescence, 72 h; activity change, negative = cytotoxic: at 46.1 µM (top of the series)
# Summary of the method: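 KB-3-1 parental drug-naive adenocarcinoma cells in DMEM/10% FBS, incubated 72 h at 37 C with pin-transferred compounds across a concentration series. Viability by CellTiter-Glo luminescence; concentration-response curves fitted after normalization.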
# % is scaled to controls: 0 for no effect and ±100 for the full control effect; potency is read from the fitted curve at half-maximal effect.
SMILES,"activity change, negative = cytotoxic",Potency
CC(=O)N1c2ccccc2CC1C(=O)N1CCN(c2cccc(Cl)c2)CC1 (configuration not stated),inactive: 5.37%,
COc1ccc(CCN(C(=O)c2ccc(F)cc2)C2=CC3CCC(C2)N3C)cc1OC (configuration not stated),inactive: 4.82%,
S=C(NC1CCCCC1)NN(c1ccccc1)c1ccccc1,,"inconclusive: 29.1 µM [cytotoxic, single point]"
COCCCN(C(=S)NC(=O)C(C)(C)C)c1c(N)n(Cc2ccccc2)c(=O)[nH]c1=O,,"inconclusive: 20.6 µM [cytotoxic, single point]"
COc1cc(C(=O)NCCc2c[nH]c3ccccc23)ccc1OCc1c(C)noc1C,,"inconclusive: 10.3 µM [rising, partial curve, poor fit]"
Cc1ccc(C(=O)/C=C/Nc2ccccc2C(N)=O)cc1,,"inconclusive: 16.4 µM [cytotoxic, partial curve]"
Cc1cc(Cl)c(S(=O)(=O)N2CCN(c3ccc(F)cc3)CC2)cc1OCC(=O)NC1CCCCC1,,active: 0.731 µM
CCCCCCCCCCCCCC(=O)Nc1ccc(/C=C/c2ccnc3ccccc23)cc1,,"inconclusive: 25.9 µM [rising, partial curve, poor fit]"
CC(C)N(C)c1ncnc2c1ncn2[C@H]1CN(Cc2ccncc2)C[C@@H](CO)O1,inactive: -23.2%,
CCN(c1ncnc2c1cnn2-c1cc(Cl)ccc1C)C1CCCCC1,,"inconclusive: 29.1 µM [cytotoxic, single point]"
Nc1c(-c2nc(-c3cccs3)no2)nnn1-c1cccc(F)c1,inactive: 8.12%,
CCOC(=O)c1cnc2c(C)cccc2c1NCCc1ccc(OC)c(OC)c1,,"inconclusive: 29.1 µM [cytotoxic, single point]"
CCc1ccc(NC(=O)c2ccc3oc(=O)n(Cc4ccccc4)c3c2)cc1,,"inconclusive: 25.9 µM [cytotoxic, single point]"
O=C(c1cn(Cc2ccccc2)nc1-c1cccnc1)N1CCN(Cc2c(F)cccc2Cl)CC1,inactive: 1.15%,
Cn1ncc(Cl)c1C(=O)N1CCN(c2ccc(Cl)c(Cl)c2)CC1,,"inconclusive: 25.9 µM [cytotoxic, single point]"
Cc1cc(C)nc(NC2=NC3CCCCC3N2)n1 (configuration not stated),,"inconclusive: 16.4 µM [cytotoxic, single point]"
Cc1ccc2nc(NC(=O)C3CCN(S(=O)(=O)c4cccs4)CC3)sc2c1,,"inconclusive: 18.4 µM [cytotoxic, single point]"
CCOc1cc(N2CCOCC2)c(OCC)cc1NC(=O)Cn1cnnn1,inconclusive: -31.5% [cytotoxic],
COc1ccc(-c2cn3c(C)c(C(=O)N4CCCc5ccccc54)sc3n2)cc1,,"inconclusive: 29.1 µM [cytotoxic, single point]"
Cc1occc1-c1nnc(SCC(=O)Nc2ccccc2N2CCCCC2)n1C,,"inconclusive: 29.1 µM [cytotoxic, single point]"
Cc1nc2ccc3nc(NC(=O)c4ccco4)sc3c2s1,,"inconclusive: 0.58 µM [rising, full curve, poor fit]"
CC(C)C[C@H]1CNC(=S)N1C[C@H]1CCCN1C[C@H](CC(C)C)N1C[C@H](CC(C)C)N(CCc2ccccc2)C1=S,,"inconclusive: 29.1 µM [cytotoxic, single point]"
CCC(C(=O)NC1CCCC1)n1c2ccccc2c2nc(=O)cc(C)n21 (configuration not stated),inactive: -1.65%,
Cc1ccc(NS(=O)(=O)c2ccc3c(c2)CCC(=O)N3)cc1Cl,inactive: -25.2%,

SMILES,"activity change, negative = cytotoxic",Potency
COC(=O)c1cc(Cl)c(NC(=O)/C=C/c2ccc(OC)c(OC)c2)cc1OC,inactive: 6.48%,
CC(=O)Nc1ccc(S(=O)(=O)NC2CC(=O)N(c3ccc(C)cc3)C2)cc1 (configuration not stated),inactive: 4.09%,
O=C(N/N=C/c1cc(Br)cc(Br)c1O)c1cccc(S(=O)(=O)N2CCOCC2)c1,,"inconclusive: 18.4 µM [cytotoxic, single point]"
C/C(=N\NC(=S)Nc1ccc(C)cc1)c1cc2ccccc2o1,,"inconclusive: 14.6 µM [cytotoxic, partial curve, poor fit]"
Cc1ccccc1NC(=O)CSc1nc(N)c(C#N)c(-c2cccs2)c1C#N,inactive: 0.268%,
CCC(=O)N(C)C[C@H]1Oc2cc(-c3ccccc3F)ccc2S(=O)(=O)N([C@H](C)CO)C[C@H]1C,inactive: 12.2%,
C=CC[n+]1c(/C=C/c2ccc(OC(C)=O)c(OC)c2)ccc2ccccc21,,"inconclusive: 18.4 µM [cytotoxic, single point]"
Cc1cccc(C(=O)Nc2ccc(-c3nc4cc(C(C)C)ccc4o3)cc2)c1,,"inconclusive: 29.1 µM [cytotoxic, single point]"
COc1ccc(NC(=O)C2(C)Cc3c(-c4cccc(NC(C)=O)c4)ccnc3O2)cn1 (configuration not stated),,active: 2.06 µM
COc1cc(OC)c(OC)cc1CNCCSc1nnnn1C,inactive: 3.06%,
Cc1c(C(=O)NNC(=O)c2ccccc2O)oc2ccc(Br)cc12,,"inconclusive: 25.9 µM [cytotoxic, partial curve]"
COc1ccccc1N1CCN(C(=O)c2cnn(-c3ccc(C)c(C)c3)c2C2CCN(C(=O)OC(C)(C)C)CC2)CC1,,active: 20.6 µM
S=C(NCCN1CCOCC1)Nc1ccc(Cl)cc1Cl,,"inconclusive: 18.4 µM [rising, single point]"
CC(=O)Nc1ccc(-c2ccnc3c2CC(C(=O)Nc2ccc4c(c2)OCO4)O3)cc1 (configuration not stated),,"inconclusive: 18.4 µM [cytotoxic, single point]"
O=[N+]([O-])c1ccccc1/C=C/c1ccnc2ccccc12,inconclusive: -2.16%,
O=C(CCN1CCN(Cc2ccccc2)CC1)Nc1cccc(Br)c1,inactive: 1.36%,
C/C(=N\NC(=S)NCCc1ccccc1)c1cccs1,inactive: -1.4%,
NC(=O)c1ccsc1NC(=O)COC(=O)c1ccc([N+](=O)[O-])o1,inactive: -23.7%,
COc1ccc(C2CC(C)(c3ccc(OC)cc3)Nc3ccccc3N2)cc1 (configuration not stated),,active: 20.6 µM
COc1ccc(Cl)cc1S(=O)(=O)N1CCN(Cc2cccc(F)c2)CC1,inactive: 4.39%,
O=C(Nc1ccncc1)c1cnn2c1NC(=C1CC1)C=C2C(F)F,inactive: 0%,
CCOC(=O)C1(CCCc2ccccc2)CCN(C(=O)CN2CCOC2=O)CC1,inactive: 12%,
CN=c1scc(-c2ccccc2F)n1/N=C/c1ccc(O)c(O)c1O,,"inconclusive: 18.4 µM [cytotoxic, single point]"

# Quoted at random: two entries already listed.
SMILES,"activity change, negative = cytotoxic",Potency
COc1ccc(Cl)cc1S(=O)(=O)N1CCN(Cc2cccc(F)c2)CC1,inactive: 4.39%,
C/C(=N\NC(=S)NCCc1ccccc1)c1cccs1,inactive: -1.4%,

# From PubChem BioAssay AID1347075 (National Center for Advancing Translational Sciences (NCATS), 2019)
